Source: article PMC6925144, “A prospective compound screening contest identified broader inhibitors for Sirtuin 1” (Scientific Reports, 2019)
In all, about 3,200 compounds were measured (“TSA(without NAD+) / Primary screening (TSA) / delta Tm (K)”: median about -0.07, highest 2% from about 0.37 on). This is one part of the list.

Chains of the proteins cited; added tags and fusions are not shown. Residues count along the entry.
UniProt Q96EB6, 2-747 limits assumed: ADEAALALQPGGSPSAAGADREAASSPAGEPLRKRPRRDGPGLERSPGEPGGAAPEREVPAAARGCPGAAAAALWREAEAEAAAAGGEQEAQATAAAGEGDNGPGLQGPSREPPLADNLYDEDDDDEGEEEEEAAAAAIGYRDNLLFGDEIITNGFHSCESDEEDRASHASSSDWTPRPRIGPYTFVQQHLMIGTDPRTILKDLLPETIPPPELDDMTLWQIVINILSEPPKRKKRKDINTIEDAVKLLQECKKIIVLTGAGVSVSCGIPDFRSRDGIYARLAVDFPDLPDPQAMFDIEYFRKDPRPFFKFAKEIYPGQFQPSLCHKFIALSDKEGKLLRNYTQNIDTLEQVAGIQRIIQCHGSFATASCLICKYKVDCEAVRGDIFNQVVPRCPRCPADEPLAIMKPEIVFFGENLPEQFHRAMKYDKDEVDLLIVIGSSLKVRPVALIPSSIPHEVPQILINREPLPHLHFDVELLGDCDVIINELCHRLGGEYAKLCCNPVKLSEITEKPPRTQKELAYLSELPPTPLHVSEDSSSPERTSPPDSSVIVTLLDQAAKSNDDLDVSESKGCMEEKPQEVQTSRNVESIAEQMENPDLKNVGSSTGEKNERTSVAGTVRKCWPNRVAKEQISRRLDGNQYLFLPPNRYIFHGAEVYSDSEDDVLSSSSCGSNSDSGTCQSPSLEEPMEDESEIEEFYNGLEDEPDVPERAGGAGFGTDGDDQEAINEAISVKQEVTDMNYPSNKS

These molecules were tested against NAD-dependent deacetylase Sirtuin 1 (human, UniProt Q96EB6) (assay: primary screen, delta tm). Conditions: 10 µM.
Set-up: single well (n = 1)
How it was run: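 Thermal shift of Sirtuin 1 measured without NAD+, compound at 10 µM (n = 1); value is ΔTm, with hits defined as ΔTm > 0.45 K or < −1.5 K. Hits retested at 5, 10, 20 µM (n = 4) and counterscreened on bovine carbonic anhydrase and ABL1 SH2 domain.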

First: CC1(c2cccc(N)c2)NC(=O)NC1=O (stereo not shown)
Second: Cc1cccc(NC=C2C(=O)NC(=S)NC2=O)n1
The “TSA(without NAD+) / Primary screening (TSA) / delta Tm (K)” value of the first is higher: -0.12 K for the first, -0.13 K for the second.

First: CCC(N)CC
Second: CCC(N)COC (stereo not shown)
The “TSA(without NAD+) / Primary screening (TSA) / delta Tm (K)” value of the first is higher: -0.08 K for the first, -0.18 K for the second.

First: O=C(O)c1ccc2c(=O)n3c(nc2c1)/C(=C\c1cccc(O)c1)CC3
Second: NC(=O)c1ccc(Cl)c(NC(=O)c2nn(-c3ccccc3)c3c2CCC3)c1
The “TSA(without NAD+) / Primary screening (TSA) / delta Tm (K)” value of the first is higher: 0.12 K for the first, -0.21 K for the second.

First: CCn1cc(CC(=O)N2CCC(CN3CCCC3)C2)c2ccccc21 (stereo not shown)
Second: NC(=O)C1CCCN1C1CCN(c2ccnc3c(F)cccc23)CC1 (stereo not shown)
The “TSA(without NAD+) / Primary screening (TSA) / delta Tm (K)” value of the first is lower: -0.32 K for the first, 0.02 K for the second.

Compared with `CCCNC(=O)CSc1nnc(-c2c[nH]c3ccccc23)n1Cc1ccco1`, `O=[N+]([O-])c1ccc(CSc2nnc(-c3c[nH]c4ccccc34)n2-c2ccc(Cl)cc2)cc1` is higher in “TSA(without NAD+) / Primary screening (TSA) / delta Tm (K)” value: 0.02 K for the first, 0.08 K for the second.

First: COc1ccc(N(C)S(=O)(=O)c2cccc(C(=O)Nc3ccc(Br)cc3F)c2)cc1
Second: CN(c1ccccc1)S(=O)(=O)c1cccc(C(=O)Nc2ccccc2-c2nc3ccccc3[nH]2)c1
The “TSA(without NAD+) / Primary screening (TSA) / delta Tm (K)” value of the first is lower: 0.07 K for the first, 0.33 K for the second.

Going from `CCCOc1ccc(C(=O)C2=C(O)C(=O)N(CCN3CCOCC3)C2c2ccc([N+](=O)[O-])cc2)cc1` (stereo not shown) to `COc1cccc(C2C(C(=O)c3ccco3)=C(O)C(=O)N2CCCN2CCOCC2)c1` (stereo not shown), the “TSA(without NAD+) / Primary screening (TSA) / delta Tm (K)” value falls from -0.04 K to -0.23 K.

Going from `O=C(CCCNC(=O)c1cccs1)NNC(=O)COc1ccccc1-c1ccccc1` to `COc1cc(CN(C)C(=O)c2cccc(S(C)(=O)=O)c2)ccc1OCc1ccccc1`, the “TSA(without NAD+) / Primary screening (TSA) / delta Tm (K)” value rises from -0.03 K to 0.03 K.

First: O=C(NCc1cccnc1N1CCOCC1)C1=COCCO1
Second: Cc1c(-c2ccccc2)sc(NC(=O)C2=COCCO2)c1C(=O)N1CCOCC1
The “TSA(without NAD+) / Primary screening (TSA) / delta Tm (K)” value of the first is higher: -0.17 K for the first, -0.23 K for the second.

Compared with `CC1Cc2ccccc2N1C(=O)c1ccc(Cl)nc1Cl` (stereo not shown), `Oc1cccc2c1Cc1c-2nc2ccc(Cl)cc2c1-c1ccccc1Cl` is higher in “TSA(without NAD+) / Primary screening (TSA) / delta Tm (K)” value: -0.03 K for the first, 0.38 K for the second.

Going from `COC(=O)NC1(C(=O)Nc2cnc3ccccc3n2)CCCC1` to `c1ccc2c3c([nH]c2c1)C1(CCCCC1)NCC3`, the “TSA(without NAD+) / Primary screening (TSA) / delta Tm (K)” value falls from -0.11 K to -0.13 K.

`O=C(OCc1cc(Cl)ccn1)c1ccc2[nH]c(C(F)F)nc2c1` and `O=c1oc2cc(Cl)ccc2n1Cc1nc(-c2ccco2)no1` are the same in “TSA(without NAD+) / Primary screening (TSA) / delta Tm (K)” value: 0.06 K for the first, 0.06 K for the second.

Compared with `COc1ccccc1NC(=O)c1ccc(NC(=O)COC(=O)C23CC4CC(CC(C4)C2)C3)cc1`, `COc1cc(C(C)=O)ccc1COc1ccc(C(=O)OC(C)C(=O)NC23CC4CC(CC(C4)C2)C3)cc1OC` (stereo not shown) is lower in “TSA(without NAD+) / Primary screening (TSA) / delta Tm (K)” value: 0.42 K for the first, 0.05 K for the second.

First: CCOc1ccc(NC(=O)CN(C)C(=O)/C=C/c2ccc(S(=O)(=O)N3CCCCCC3)cc2)cc1OCC
Second: CCCCn1c(N)c(N(CCOC)C(=O)c2cccc(S(=O)(=O)N(C)c3ccc(C)cc3)c2)c(=O)[nH]c1=O
The “TSA(without NAD+) / Primary screening (TSA) / delta Tm (K)” value of the first is higher: -0.03 K for the first, -0.17 K for the second.

First: COC(C)C(=O)O (stereo not shown)
Second: Cc1ccc(N(C)S(=O)(=O)c2cccc(C(=O)OC(C)C(N)=O)c2)cc1 (stereo not shown)
The “TSA(without NAD+) / Primary screening (TSA) / delta Tm (K)” value of the first is lower: -0.13 K for the first, -0.12 K for the second.

Compared with `Cc1ccc(C)c(N2C(=O)c3ccc(C(=O)Nc4ccc(Oc5ncccn5)cc4)cc3C2=O)c1`, `Cc1ccc(N(C)S(=O)(=O)c2cccc(C(=O)OCc3cc(=O)oc4cc(C)ccc34)c2)cc1` is higher in “TSA(without NAD+) / Primary screening (TSA) / delta Tm (K)” value: -0.21 K for the first, -0.01 K for the second.

Going from `CN1C(=O)C(C(=O)c2cn(C)c3ccccc23)C(=O)N(C)C1=O` to `CCOC(=O)c1c(C2CC2)csc1NC(=O)COC(=O)C1CC(=O)N(c2ccccc2C(C)CC)C1` (stereo not shown), the “TSA(without NAD+) / Primary screening (TSA) / delta Tm (K)” value falls from -0.05 K to -0.48 K.

Compared with `O=[N+]([O-])c1ccc(/C=C/Br)o1`, `CC(NCc1ccncc1)c1ccccc1` (stereo not shown) is higher in “TSA(without NAD+) / Primary screening (TSA) / delta Tm (K)” value: 0.02 K for the first, 0.06 K for the second.

First: O=C(NCC(c1ccccc1)c1c[nH]c2ccccc12)C1=COCCO1 (stereo not shown)
Second: O=C(Cn1cnc2ccccc2c1=O)Nc1ccc(N2CCN(Cc3ccccc3)CC2)cc1
The “TSA(without NAD+) / Primary screening (TSA) / delta Tm (K)” value of the first is lower: -0.23 K for the first, -0.02 K for the second.

First: CCc1sc(C(=O)Nc2cc(C(N)=O)ccc2N2CCCC2)cc1C
Second: O=C(CN1CCN(c2ncnc3ccsc23)CC1)Nc1ccccc1Cl
The “TSA(without NAD+) / Primary screening (TSA) / delta Tm (K)” value of the first is higher: -0.03 K for the first, -0.34 K for the second.

Going from `CCCN(C(=O)CSc1nnc(NCc2ccco2)s1)C1=CCCCC1` to `OCC1(Nc2ncnc3ccsc23)CCC1`, the “TSA(without NAD+) / Primary screening (TSA) / delta Tm (K)” value falls from 0.12 K to -0.22 K.

First: c1ccc(-n2ncc3c(-n4ccnc4)ncnc32)cc1
Second: Fc1cccc2[nH]c(CSc3nccn3Cc3ccccn3)nc12
The “TSA(without NAD+) / Primary screening (TSA) / delta Tm (K)” value of the first is lower: -0.15 K for the first, -0.12 K for the second.

First: Cc1cc2ncn(CC(NC(=O)C3CC3c3cccnc3)C3CC3)c2cc1C (stereo not shown)
Second: CCOc1cc(CN(C)C(C)C(=O)Nc2cc(C)no2)ccc1OC(F)F (stereo not shown)
The “TSA(without NAD+) / Primary screening (TSA) / delta Tm (K)” value of the first is lower: -0.13 K for the first, -0.03 K for the second.
